Experimental data taken from publication PMC4075472.
No constants are given. Whether binding was seen depends on the method and setting. Binding seen in cells or lysates may run through a third protein. These calls come from enrichment with a bait or labelling near it, and not all partners need be listed. Tags and fused reporters may be left off the sequences shown.

B1: GS2 (enzyme, UniProt P20478 1-369)
chain: MSARILEDSPNARINKTILDRYLSLPLQENIVQATYVWIDGTGEDLRCKDRTLDFIPQSPKELPVWNYDGSSCYQAEGSNSDTYLYPVAIYKDPFRRGNNILVMCDTYKFDGTPTDTNKRKTCLEVANKCAAEEPWFGIEQEYTFLDFDGHPLGWPKNGFPGPQGPYYCGVGANKVYARDIVDAHYRACLYAGIKVSGTNAEVMPAQWEFQVGPCEGISIGDDLWMARFLLHRISEEFGIVSTLDPKPMPGDWNGAGAHTNVSTKAMREDGGIRDIEKAVAKLSKCHERHIRAYDPKQGQDNARRLTGKHETSSINDFSAGVANRGCSIRIPRGVNDDGKGYFEDRRPSSNCDPYSVVEAILRTICLDE
B2: PGD (enzyme, UniProt P41572 1-481)
chain: MSGQADIALIGLAVMGQNLILNMDEKGFVVCAYNRTVAKVKEFLANEAKDTKVIGADSLEDMVSKLKSPRKVMLLVKAGSAVDDFIQQLVPLLSAGDVIIDGGNSEYQDTSRRCDELAKLGLLFVGSGVSGGEEGARHGPSLMPGGHEAAWPLIQPIFQAICAKADGEPCCEWVGDGGAGHFVKMVHNGIEYGDMQLICEAYHIMQSLGLSADQMADEFGKWNSAELDSFLIEITRDILKYKDGKGYLLERIRDTAGQKGTGKWTAIAALQYGVPVTLIGEAVFSRCLSALKDERVQASSVLKGPSTKAQVANLTKFLDDIKHALYCAKIVSYAQGFMLMREAARENKWRLNYGGIALMWRGGCIIRSVFLGNIKDAYTSQPELSNLLLDDFFKKAIERGQDSWREVVANAFRWGIPVPALSTALSFYDGYRTAKLPANLLQAQRDYFGAHTYELLGQEGQFHHTNWTGTGGNVSASTYQA
B3: ADH (enzyme, UniProt P00334 1-256)
chain: MSFTLTNKNVIFVAGLGGIGLDTSKELLKRDLKNLVILDRIENPAAIAELKAINPKVTVTFYPYDVTVPIAETTKLLKTIFAQLKTVDVLINGAGILDDHQIERTIAVNYTGLVNTTTAILDFWDKRKGGPGGIICNIGSVTGFNAIYQVPVYSGTKAAVVNFTSSLAKLAPITGVTAYTVNPGITRTTLVHKFNSWLDVEPQVAEKLLAHPTQPSLACAENFVKAIELNQNGAIWKLDLGTLEAIQWTKHWDSGI
B4: Pgk, phosphoglycerokinase (enzyme, UniProt Q01604 1-415)
chain: MAFNKLSIENLDLAGKRVLMRVDFNVPIKEGKITSNQRIVAALDSIKLALSKKAKSVVLMSHLGRPDGNKNIKYTLAPVAAELKTLLGQDVIFLSDCVGSEVEAACKDPAPGSVILLENVRFYVEEEGKGLDASGGKVKADPAKVKEFRASLAKLGDVYVNDAFGTAHRAHSSMMGDGFEQRAAGLLLNKELKYFSQALDKPPNPFLAILGGAKVADKIQLIENLLDKVNEMIIGGGMAFTFLKVLNNMKIGGSLFDEEGSKIVEKLVEKAKKNNVQLHLPVDFVCGDKFAENAAVSEATVEAGIPDGHMGLDVGPKTRELFAAPIARAKLIVWNGPPGVFEFPNFANGTKSIMDGVVAATKNGTVSIIGGGDTASCCAKWNTEALVSHVSTGGGASLELLEGKTLPGVAALTSA
B5: GlyP, glycogen phosphorylase (enzyme, UniProt Q9XTL9 1-844)
chain: MSKPQSDADRRKQISVRGIAEVGNVTEVKKNFNRHLHYTLVKDRNVSTLRDYYFALANTVKDNMVGRWIRTQQHYYEKDPKRVYYLSLEYYMGRSLTNTMINLGIQSECEEAMYQLGLDIENLEEMEEDAGLGNGGLGRLAACFLDSMATLGLAAYGYGIRYEYGIFAQKIKNGEQVEEPDDWLRYGNPWEKARPEFMLPVNFYGRVIDTPEGKKWVDTQRVFAMPYDNPIPGYNNNHVNTLRLWSAKSPIDFNLKFFNDGDYIQAVLDRNLAENISRVLYPNDNFFEGKELRLKQEYFMCAATLQDIIRRYKASKFGSREAVRNTFDHFPDKVAIQLNDTHPSLAIPELMRILVDEEHLTWEKAWDITVRSCAYTNHTVLPEALERWPVSLLESILPRHLQIIYHINFLHMENVKKKFPDDLDRMRRMSMVEEDGEKRINMAHLSIVGSHAVNGVAAIHSQILKDSLFHDFYEMEPQKFQNKTNGITPRRWLLLCNPGLSDLIAEKIGDEWPVHLDQLVALKKWAKDPNFQRNVARVKQENKLKLAAILEKDYGVKINPSSMFDIQVKRIHEYKRQLLNCLHIITLYNRIKKDPTANFTPRTIMIGGKAAPGYYVAKQIIKLICAVGNVVNNDPIVGDKLKVIFLENYRVTLAEKIMPAADLSEQISTAGTEASGTGNMKFQLNGALTIGTLDGANVEMAEEMGLDNIFIFGMTVDEVEALKKKGYNAYDYYNANPEVKQVIDQIQGGFFSPGNPNEFKNIADILLKYDHYYLLADYDAYIKAQDLVSKTYQNQAKWLEMSINNIASSGKFSSDRTIAEYAREIWGVEPTWEKLPAPEDQPQN
B6: INOS (enzyme, UniProt O97477 1-565)
chain: MKPTNNSTLEVISPKVQVDDEFITTDYDYQTSHVKRTADGQLQVHPQTTSLKIRTGRHVPKLGVMLVGWGGNNGSTLTAALEANRRQLKWRKRTGVQEANWYGSITQASTVFIGSDEDGGDVYVPMKELLPMVEPDNIIVDGWDISGLHLGDAMRRAEVLDVALQDQIYDQLAQLRPRPSIYDPDFIAANQSDRADNVIRGTRLEQYEQIRKDIRDFRERSGVDSVIVLWTANTERFADVQPGLNTTSQELIASLEANHSEVSPSTIFAMASIAEGCTYINGSPQNTFVPGLIQLAEEKNVFIAGDDFKSGQTKIKSVLVDFLVGAGIKPVSIASYNHLGNNDGKNLSAPQQFRSKEISKSNVVDDMVASNRLLYGPDEHPDHVVVIKYVPYVGDSKRAMDEYTSEIMMGGHNTLVIHNTCEDSLLATPLILDLVILGELSTRIQLRNAEKESAPWVPFKPVLSLLSYLCKAPLVPQGSQVVNSLFRQRAAIENILRGCIGLPPISHMTLEQRFDFSTITNEPPLKRVKILGQPCSVESVTNGKKLHANGHSNGSAKLATNGNGH
B7: SOD2 (enzyme, UniProt Q00637 18-217)
chain: KHTLPKLPYDYAALEPIICREIMELHHQKHHQTYVNNLNAAEEQLEEAKSKSDTTKLIQLAPALRFNGGGHINHTIFWQNLSPNKTQPSDDLKKAIESQWKSLEEFKKELTTLTVAVQGSGWGWLGFNKKSGKLQLAALPNQDPLEASTGLIPLFGIDVWEHAYYLQYKNVRPSYVEAIWDIANWDDISCRFQEAKKLGC
B8: Pdi, protein disulfide isomerase (enzyme, UniProt P54399 19-496)
chain: AEAEVKVEEGVLVATVDNFKQLIADNEFVLVEFYAPWCGHCKALAPEYAKAAQQLAEKESPIKLAKVDATVEGELAEQYAVRGYPTLKFFRSGSPVEYSGGRQAADIIAWVTKKTGPPAKDLTSVADAEQFLKDNEIAIIGFFKDLESEEAKTFTKVANALDSFVFGVSSNADVIAKYEAKDNGVVLFKPFDDKKSVFEGELNEENLKKFAQVQSLPLIVDFNHESASKIFGGSIKSHLLFFVSREGGHIEKYVDPLKEIAKKYRDDILFVTISSDEEDHTRIFEFFGMNKEEVPTIRLIKLEEDMAKYKPESDDLSAETIEAFLKKFLDGKLKQHLLSQELPEDWDKNPVKVLVSSNFESVALDKSKSVLVEFYAPWCGHCKQLAPIYDQLAEKYKDNEDIVIAKMDSTANELESIKISSFPTIKYFRKEDNKVIDFNLDRTLDDFVKFLDANGEVADSEPVEETEEEEEAPKKDEL
B9: JAFRAC1 (enzyme, UniProt Q9V3P0 1-194)
chain: MPQLQKPAPAFAGTAVVNGVFKDIKLSDYKGKYLVLFFYPLDFTFVCPTEIIAFSESAAEFRKINCEVIGCSTDSQFTHLAWINTPRKQGGLGSMDIPLLADKSMKVARDYGVLDEETGIPFRGLFIIDDKQNLRQITVNDLPVGRSVEETLRLVQAFQYTDKYGEVCPANWKPGQKTMVADPTKSKEYFETTS
B10: prtp, thioredoxin (protein, UniProt Q9VYV3 26-416)
chain: SQEEDTGKQDKQFTVELDPETFDTAIAGGNVFVKFFAPWCGHCKRIQPLWEQLAEIMNVDNPKVIIAKVDCTKHQGLCATHQVTGYPTLRLFKLGEEESVKFKGTRDLPAITDFINKELSAPAEADLGEVKREQVENLNIGKVVDLTEDTFAKHVSTGNHFVKFFAPWCSHCQRLAPTWEDLAKELIKEPTVTISKIDCTQFRSICQDFEVKGYPTLLWIEDGKKIEKYSGARDLSTLKTYVEKMVGVPLEKTAGEAGDEKVVIEEVAGEEDAAKKLTPQQLTGEDEFDQAIAEGVAFIKFYAPWCGHCQKLQPTWEQLATETHQAQSSVKIAKVDCTAPENKQVCIDQQVEGYPTLFLYKNGQRQNEYEGSRSLPELQAYLKKFLGHDEL
B11: CG2947, Hsc binding protein (protein, UniProt Q86DS1 1-377)
chain: MAFTMQTGDLKKLKYFIDFALENPTFLNMPQLQFVKDFVEKFGGTVPPGQFNGGSAGGKCPFGGVAGAKANEPANAPEDSEDEKSLSDPESDVELDMEGVIEADSDPAQPMGNYSKKATEEEVEQASELRAQAASAYGQQKFDEAIALYTKAIELSPGNALFHAKRGQAFLKLKKPNACIRDCDVALELNSDLAAGYKFRGRARRLLGDFELAAHDLRQACKLDFDEETDEWLKEVTPNAKKIEQHRLKQERRQAERKIKERQRDQRRARKEQEKHNASSGGSSGEFSGGNPGNGNMSDILGAMSDPEVSAAIQDILSNPGNITKYASNPKIYNLIKKIVPGGDVGAAFGQAGEKAGKPSEPKPKKDSADFVDDGLD

Target: T1, CASK-β, full-length wild type, tagged with a C-terminal YFP (Drosophila) (UniProt Q24210)
T1 sequence: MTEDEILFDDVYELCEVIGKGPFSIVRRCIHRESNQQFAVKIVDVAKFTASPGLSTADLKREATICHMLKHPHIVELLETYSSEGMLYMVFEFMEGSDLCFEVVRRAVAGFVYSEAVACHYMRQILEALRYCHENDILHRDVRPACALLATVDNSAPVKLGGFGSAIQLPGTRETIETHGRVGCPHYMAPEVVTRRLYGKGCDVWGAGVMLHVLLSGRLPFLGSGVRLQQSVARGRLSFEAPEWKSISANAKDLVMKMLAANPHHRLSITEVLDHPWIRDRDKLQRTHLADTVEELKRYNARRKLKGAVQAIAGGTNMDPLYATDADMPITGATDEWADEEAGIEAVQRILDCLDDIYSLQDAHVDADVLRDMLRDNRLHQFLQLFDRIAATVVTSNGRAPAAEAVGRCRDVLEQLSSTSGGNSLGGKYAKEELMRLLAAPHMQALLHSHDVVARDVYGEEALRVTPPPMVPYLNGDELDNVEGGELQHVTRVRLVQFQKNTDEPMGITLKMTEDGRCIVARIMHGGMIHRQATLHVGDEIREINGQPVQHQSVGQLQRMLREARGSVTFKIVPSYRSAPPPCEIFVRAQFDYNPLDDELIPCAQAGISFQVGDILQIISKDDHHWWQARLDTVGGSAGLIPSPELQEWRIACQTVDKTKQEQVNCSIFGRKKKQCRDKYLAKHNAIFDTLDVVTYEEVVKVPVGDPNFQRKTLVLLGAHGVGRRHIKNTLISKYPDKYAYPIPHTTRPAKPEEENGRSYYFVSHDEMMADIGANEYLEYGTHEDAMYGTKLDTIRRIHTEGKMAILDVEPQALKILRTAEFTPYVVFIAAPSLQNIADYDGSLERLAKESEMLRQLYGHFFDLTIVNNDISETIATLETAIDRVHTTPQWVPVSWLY
Assay: affinity purification with mass spectrometry; as a1, but CASK-YFP (full length, ΔL27 or ΔCaMK) expressed with TH-GAL4 (dopaminergic neurons); decreased: peptide ratio mutant/full length <= 0.5

binding, binds:
B1
B2
B3
B4
B5
B6
B7
B8
B9
B10
B11
